Test results taken from publication PMC7966797, “A cold shock protein promotes high-temperature microbial growth through binding to diverse RNA species”.
For at least one entry, the source does not settle the construct or the ends of the probe. At least one verdict rests on a figure or table, not on a statement of the authors. Tags and fusion partners may be left off the protein sequences shown.

Target: T1, CspL (Bacillus coagulans 2-6) (UniProt A0A0C5C4D7)
T1 sequence (looked up, limits assumed): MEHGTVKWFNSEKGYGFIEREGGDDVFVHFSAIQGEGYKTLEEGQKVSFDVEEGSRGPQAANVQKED
Test: BLI
Conditions: 20 ug/ml CspL, streptavidin sensor with 5'-biotin oligo, 20 mM PBS pH 7.4, 100 mM NaCl, 0.1% BSA, 0.02% Tween 20, CspL 20 ug/ml, recombinant protein, protein details: His, label: 5'-biotin

Row | Sequence | binding result | binding result (single-stranded DNA)
1 | CGGGAGAGGCGGUUUGCGUAUUGU [24 nt RNA (RNA 1)] | binds | –
2 | UAAUGA [6 nt RNA (RNA 10)] | binds | –
3 | AAUGC [5 nt RNA (RNA 15)] | binds | –
4 | GGAATT [6 nt ssDNA (ssDNA 8)] | – | binds
5 | GTACCCGGGGATCCTCTAGAGTCG [24 nt ssDNA (ssDNA 3)] | – | binds
